Where “and” joins values, the source holds several entries; their conditions need not be identical. Equal entries are not always repeated. Among all 18,000 compounds or so, about 750 (4.2%) were called active. The shares of active, inactive and inconclusive entries below differ from those in the screen. Calls follow the shape of the full dose curve; tested in HEK293 cells. Potencies of inconclusive entries are doubtful fits and often do not repeat.
Experiment: qHTS for Inhibitors of binding or entry into cells for Lassa Virus
Settings: Lassa virus pseudotyped entry inhibition, cell-based qHTS; activity change, negative = inhibition: at 49.2 µM (top of the series) unless noted
% is scaled to controls: 0 for no effect and ±100 for the full control effect; potency is read from the fitted curve at half-maximal effect.

Compound | Potency | activity change, negative = inhibition
Cc1c(C(=O)N2CC3CCC2C3)sc2ncnc(NCCc3c[nH]c4ccccc34)c12 (configuration not stated) | inconclusive: 12.6 µM [inhibitor, partial curve] | –
CC1(OC(=O)c2cnc3ccccc3n2)C(=O)C=C2C=C(c3ccc(C#N)cc3)OC=C2C1=O (configuration not stated) | – | inconclusive: 23.1% [inhibitor] [at 8.59 µM]
CC(C)(C)CC(C)(C)c1ccc(O)cc1 | inconclusive: 50.1 µM [inhibitor, partial curve] | –
Cc1ccc(NC2=CC(=O)c3sc(C)nc3C2=O)cc1 | active: 3.55 µM | –
CO[C@]1(NC(=O)CSC(F)F)C(=O)N2C(C(=O)O)=C(CSc3nnnn3CCO)CO[C@H]21 | – | inactive: -13.4%
COc1cccc2c1[C@H](C=Cc1ccccc1)[C@@H]([C@H](O)CO)OC2 | – | inconclusive: -30.6% [inhibitor] [at 8.59 µM]
CNc1ccc2oc(C[C@@H]3OC4(CC[C@@H]3C)O[C@H]([C@@H](C)C(=O)c3ccc[nH]3)[C@H](C)C[C@H]4C)nc2c1C(=O)O (some centres not stated) | active: 2.82 µM | –
COc1ccc2c(c1)CCc1cnc(-n3ncc(C(=O)NCCCc4ccncc4)c3C)nc1-2 | inconclusive: 22.4 µM [inhibitor, single point] | –
O[C@@](CCN1CCCCC1)(c1ccccc1)[C@@H]1C[C@H]2C=C[C@@H]1C2 | – | inactive: -9.6% [at 17.8 µM]
Cn1c2ccccc2c2c3c(c4c5ccccc5n(CCC#N)c4c21)CNC3=O | active: 11.2 µM | –
CC(C)C1C(=O)N(Cc2cn(CC3CCCCC3)nn2)CCS(=O)(=O)N1Cc1ccc(-c2ccncc2)cc1 (configuration not stated) | – | inconclusive: -37.1% [inhibitor]
Cc1cnc(C)c(-c2cc(F)cc3c2OC(CNC(=O)Cc2c(C)noc2C)C3)n1 (configuration not stated) | – | inactive: -9.76%
COc1ccc(C(=O)c2ccc(O)cc2)c(O)c1O | inconclusive: 35.5 µM [inhibitor, single point] | –
CCC1CN(CCNC(=O)c2cc(C(C)C)nn2C)Cc2cc(OC)ccc2O1 (configuration not stated) | inconclusive: 35.5 µM [inhibitor, partial curve] | –
C=CC[C@](C)(Nc1ccc(OC)cc1)C(=O)OCC | inactive | –
CC(C)Nc1oc(-c2ccccc2)nc1-c1ccc(C(F)(F)F)cc1 | – | inactive: -11.1% [at 8.59 µM]
Nc1nc2c(nc(Cl)n2C2OC(CO)C(O)C2O)c(=O)[nH]1 (configuration not stated) | – | inactive: -8.45%
O=C(O)c1ccc(/C=C2/SC(=S)N(c3cccc(C(F)(F)F)c3)C2=O)cc1 | inconclusive: 11.2 µM [inhibitor, partial curve] | –
CCOC(=O)[C@H](CS)NCCN[C@@H](CS)C(=O)OCC | inconclusive: 14.1 µM [inhibitor, full curve, poor fit] | –
CC(=O)O[C@H]1C2[C@@H](OC(=O)Cc3ccccc3)[C@@H](C)C[C@]2(OC(C)=O)C(=O)/C(C)=C/[C@@H]2[C@H](CC[C@@]13CO3)C2(C)C (some centres not stated) | – | inactive: -28%
O=S(c1cc(Cl)cc(Cl)c1O)c1cc(Cl)cc(Cl)c1O | inconclusive: 31.6 µM [inhibitor, partial curve, poor fit] | –

Compound | Potency | activity change, negative = inhibition
CC[C@@H](C)[C@H](NS(=O)(=O)c1cccc2ccccc12)C(=O)N[C@H](C=O)Cc1c[nH]c2ccccc12 | inconclusive: 35.5 µM [inhibitor, single point] | –
CCOc1ccc(C(=O)c2ccc(O)c(O)c2O)cc1 | – | inactive: -0.583%
CC1C(=O)N(Cc2cn(CC3CCCCC3)nn2)CCS(=O)(=O)N1Cc1ccc(-c2ccccc2)cc1 (configuration not stated) | inconclusive: 19.9 µM [inhibitor, partial curve, poor fit] | –
CC[N+](CC)(CC)CCC(O)(c1ccccc1)C1CCCCC1 (configuration not stated) | – | inactive: -9.81% [at 17.8 µM]
C=CC[C@@H]1C=C[C@@H](Oc2ccc(OC)cc2)[C@H](CO)O1 | – | inactive: -7.22% [at 8.59 µM]
COc1ccc(C[C@@H]2NC[C@H](O)[C@@H]2OC(C)=O)cc1 | active: 0.0112 µM | –
NC[C@@H]1O[C@H](c2ccccc2)Cc2c1ccc(O)c2O | – | inactive: -16.1%
Cc1nc2ccc(CN(C)c3ccc(C(=O)N[C@@H](CCC(=O)O)C(=O)O)s3)cc2c(=O)[nH]1 | inconclusive: 1 µM [inhibitor, full curve, poor fit] and inconclusive: 282 nM [inhibitor, full curve, poor fit] | –
CCCCCCCCCC(CC)c1ccc(S(=O)(=O)O)cc1 (configuration not stated) | inconclusive: 11.2 µM [inhibitor, partial curve, poor fit] | –
CCCCC[C@H](O)C/C=C1/C(=O)C=C[C@@H]1C/C=C\CCCC(=O)O | inconclusive: 14.1 µM [inhibitor, partial curve, poor fit] | –
COCOc1ccc(OC)cc1C(=O)C1O[C@H]1c1ccc(OC)c(Br)c1 (some centres not stated) | inconclusive: 10 µM [inhibitor, partial curve] | –
Cc1ccc2c(c1)CN(CCNC(=O)C(C)Oc1ccccc1)CC(C)O2 (configuration not stated) | – | inactive: 0.704%
CCOC(=O)C1Oc2ccccc2C(C(=O)OC)=C1C(=O)OC (configuration not stated) | – | inactive: -4.6%
CC(=O)c1ccc(Nc2c3ccccc3cc3occc23)cc1 | inconclusive: 0.112 µM [inhibitor, full curve] | –
COc1ccc(-n2c(CNC(=O)c3ccccc3C(F)(F)F)nnc2SC)cc1 | inconclusive: 12.6 µM [inhibitor, partial curve, poor fit] | –
COc1ccc2cc1Oc1ccc(cc1)CC1c3cc(c(OC)cc3CCN1C)Oc1c(OC)c(OC)c(OC)c3c1C(C2)N(C)CC3 (configuration not stated) | inconclusive: 35.5 µM [inhibitor, single point] | –
C[C@H]1[C@H](c2ccccc2)Oc2cc(Br)ccc2S(=O)(=O)N1Cc1ccc(Cl)cc1 | – | inactive: 10.4%
COc1cc(C[C@@H]2NCCc3cc(O)c(O)cc32)cc(OC)c1OC | – | inactive: 4.3%
O=S1(=O)CC(N2CCC(c3ccccc3)CC2)CN1Cc1ccc(F)cc1 (configuration not stated) | – | inconclusive: -33.8% [inhibitor]
CCCCCCCCCCCCCCCC[n+]1ccccc1 | active: 22.4 µM | –
C=C1C/C(=C/C)C(=O)O[C@@H]2CCN3CC=C(COC(=O)[C@]1(C)O)[C@@H]23 | inconclusive: 1.12 µM [inhibitor, full curve, poor fit] | –
